{
  "source": "paper PMC8822347",
  "about": "“Sustained Control of Pyruvate Carboxylase by the Essential Second Messenger Cyclic di-AMP in Bacillus subtilis” (mBio, 2022)",
  "binders": {"B1": {"name": "DarB, endogenous in B. subtilis crude extract (protein, UniProt O31698 1-147)", "chain": "MISLQSDQLLEATVGQFMIEADKVAHVQVGNNLEHALLVLTKTGYTAIPVLDPSYRLHGLIGTNMIMNSIFGLERIEFEKLDQITVEEVMLTDIPRLHINDPIMKGFGMVINNGFVCVENDEQVFEGIFTRRVVLKELNKHIRSLNK"}},
  "biological_target": "T1, pyruvate carboxylase (PC), endogenous in B. subtilis crude extract (B. subtilis (endogenous in B. subtilis)) (UniProt Q9KWU4)",
  "T1 sequence (chain, biotin as a cofactor)": "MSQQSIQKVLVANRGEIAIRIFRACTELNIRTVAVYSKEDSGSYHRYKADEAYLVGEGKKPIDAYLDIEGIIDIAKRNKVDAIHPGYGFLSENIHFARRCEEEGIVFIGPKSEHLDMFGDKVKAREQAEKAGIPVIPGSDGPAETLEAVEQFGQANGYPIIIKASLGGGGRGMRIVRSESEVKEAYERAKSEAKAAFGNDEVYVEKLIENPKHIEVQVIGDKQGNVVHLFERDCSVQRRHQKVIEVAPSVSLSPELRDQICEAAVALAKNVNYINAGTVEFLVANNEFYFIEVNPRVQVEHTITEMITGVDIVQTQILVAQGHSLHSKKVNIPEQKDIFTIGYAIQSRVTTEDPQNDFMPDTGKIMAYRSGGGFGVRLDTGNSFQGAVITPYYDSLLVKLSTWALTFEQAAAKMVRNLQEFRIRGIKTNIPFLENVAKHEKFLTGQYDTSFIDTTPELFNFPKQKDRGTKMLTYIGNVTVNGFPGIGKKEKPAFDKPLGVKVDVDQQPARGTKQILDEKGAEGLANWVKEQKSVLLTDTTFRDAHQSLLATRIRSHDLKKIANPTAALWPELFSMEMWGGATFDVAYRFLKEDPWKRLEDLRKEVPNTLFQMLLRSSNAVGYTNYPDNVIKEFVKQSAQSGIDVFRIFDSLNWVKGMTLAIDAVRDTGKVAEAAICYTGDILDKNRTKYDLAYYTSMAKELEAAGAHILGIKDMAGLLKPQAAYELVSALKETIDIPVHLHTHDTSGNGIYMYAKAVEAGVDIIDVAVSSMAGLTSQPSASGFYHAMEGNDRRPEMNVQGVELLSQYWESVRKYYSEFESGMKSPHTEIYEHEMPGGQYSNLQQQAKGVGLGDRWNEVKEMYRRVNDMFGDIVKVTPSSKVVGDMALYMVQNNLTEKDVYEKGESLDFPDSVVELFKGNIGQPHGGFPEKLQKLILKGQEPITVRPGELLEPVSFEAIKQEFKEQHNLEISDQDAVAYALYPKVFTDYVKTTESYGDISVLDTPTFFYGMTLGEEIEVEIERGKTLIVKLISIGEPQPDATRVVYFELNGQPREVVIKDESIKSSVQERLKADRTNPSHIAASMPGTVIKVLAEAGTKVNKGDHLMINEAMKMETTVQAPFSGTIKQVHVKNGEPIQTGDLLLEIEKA",
  "assay": "affinity purification with mass spectrometry; B. subtilis crude extract (MSSM medium, glutamate, 5 mM KCl) passed over a StrepTactin column that holds the naturally biotinylated proteins PC and AccB; eluted with 2.5 mM desthiobiotin; eluates analysed by mass spectrometry",
  "note": "No constants are given. Whether binding was seen depends on the method and setting. In cells and extracts the contact can be indirect. These calls come from enrichment with a bait or labelling near it, and not all partners need be listed.",
  "data": [
    {"binder": "B1", "values": [
      {"measurement": "binding", "value": "binds"}
    ]}
  ]
}
